Patent US11666558B2, “Methods of treating intraocular pressure with activators of Tie-2” (EyePoint Pharmaceuticals, Inc., priority 2015, dated 2023)
Where “and” joins values, the source holds several entries; their conditions need not be identical. Identical values can stand only once. Counter-ions that a name gives are not always drawn. Further values from the same series stand in other lists.

What was measured:
[1] = Plasma concentrations and pharmacokinetic parameters after topical ocular, subcutaneous and intravitreal administration; format: in vivo, New Zealand White rabbits; conditions: topical ocular 1.2 mg/eye (~0.7 mg/kg/dose); 4.0 hr
Description: To measure the concentration of Compound 1 in plasma and ocular tissues following topical ocular, subcutaneous, and intravitreal administration, New Zealand White rabbits were administered Compound 1, and plasma and ocular samples were collected at pre-determined time points. Compound 1 formulations were prepared fresh on each day of dosing.
New Zealand White rabbits weighing 2.5 to 3.5 kg were used on this study. Rabbits were housed one per cage. Animals were not fasted and only healthy animals with no ocular illness were used. Two rabbits per group were sacrificed at each of four ocular tissue sampling time points for a total of eight rabbits per group. […]
Each blood sample was collected on Day 3 post dose at pre-determined time points from the rabbits via an ear vessel and placed into chilled polypropylene tubes containing sodium heparin as an anticoagulant. […]
An LC-MS/MS method was developed for the determination of Compound 1 in rabbit aqueous tissues (plasma, aqueous and vitreous humor) and solid ocular tissue samples. A pre-study standard curve was analyzed to determine the specificity, range, and lower limit of quantitation of the method. Plasma and tissue homogenate study samples were extracted and analyzed. […]
Pharmacokinetic parameters were calculated from the time course of the plasma concentration. […]

intraocular pressure = experiment: Intraocular pressure (pneumotonometer) after repeated topical and subcutaneous administration in normotensive rabbits; format: in vivo, New Zealand White rabbits
Description: To measure the tolerability and effect of Compound 1 (sodium salt) on intraocular pressure following repeated topical and subcutaneous administration, normotensive New Zealand White rabbits were treated with Compound 1 (sodium salt). Animals were acclimated 1 to 2 times per day to the intraocular pressure (IOP) measurement procedures prior to initiation of the study to determine baseline IOP levels. IOP acclimation was performed in the two weeks prior to study start for a total of 5 days. Animals with unacceptable IOP values were excluded from the study. Prior to taking all IOP measurements, 1 to 2 drops of a 0.5% proparacaine solution were applied to the eye as a topical anesthetic. OP measurements were performed with a pneumotonometer. Test and control formulations were administered to the animals once or twice daily topically into both eyes or subcutaneously starting on Day 1 according to TABLE 20 and TABLE 21 below. PM dosing, where applicable, was performed ˜8 hours after AM dosing. IOP measurements were performed twice (AM and PM) at baseline (prior to the start of dosing), twice (AM and PM) on Days 1 and 7, and once daily (AM) on Days 2-6 and Day 8. Prior to taking all IOP measurements, 1 to 2 drops of a 0.5% proparacaine solution were applied to the eye as a topical anesthetic. IOP measurements were performed with a pneumotonometer. AM IOP measurements were performed 2 hours after AM dosing; the only exceptions were Day 8 AM measurements, which were performed 24 hours after the final dose. PM IOP measurements were performed ˜5 hours (baseline and Day 1) or ˜4 hours (Day 7) after AM IOP measurements, prior to PM dosing, with at least 15 minutes elapsing between anesthetic application for PM IOP measurements and PM dosing. The final round of slit-lamp examinations was performed on Day 8.

Which “plasma Conc., individual rabbit” value [1] does the source give for `COC(=O)N[C@@H](Cc1ccccc1)C(=O)N[C@@H](Cc1ccc(NS(=O)(=O)O)cc1)c1csc(-c2cccs2)n1` [Compound 1 sodium salt] here?
Its value is 13.0 ng/mL.

What about the “Intraocular pressure (IOP), individual animal” value (shortened to “Intraocular pressure (IOP)”) (intraocular pressure; Group 2, 0.45 mg/eye topical BID, Day 6, AM, OD) of the same compound?
The value was 27.0 and 23.7 and 24.5.

And the “Intraocular pressure (IOP)” value (intraocular pressure; Group 2, 0.45 mg/eye topical BID, Day 6, AM, OS)?
The value was 24.7 (2×) and 25.0.

What about the “Intraocular pressure (IOP)” value (intraocular pressure; Group 2, 0.45 mg/eye topical BID, Day 7, AM, OD) of the same compound?
Its value is 24.2 and 23.5.

What about the “Intraocular pressure (IOP)” value (intraocular pressure; Group 2, 0.45 mg/eye topical BID, Day 7, AM, OS) of the same compound?
Its value is 23.3 and 22.7 and 26.0.

What about the “Intraocular pressure (IOP)” value (intraocular pressure; Group 2, 0.45 mg/eye topical BID, Day 7, PM, OD) of the same compound?
Its value is 24.8 and 25.2 and 26.0.

What about the “Intraocular pressure (IOP)” value (intraocular pressure; Group 2, 0.45 mg/eye topical BID, Day 7, PM, OS) of the same compound?
The value was 25.3 and 28.0 and 24.7 and 26.0.

And the “Intraocular pressure (IOP)” value (intraocular pressure; Group 2, 0.45 mg/eye topical BID, Day 8, AM, OS)?
Its value is 23.0.

And the “Intraocular pressure (IOP)” value (intraocular pressure; Group 3, 1.2 mg/eye topical BID, Day 6, AM, OD)?
Its value is 24.3 and 23.3 and 22.3 and 24.2.

What about the “Intraocular pressure (IOP)” value (intraocular pressure; Group 3, 1.2 mg/eye topical BID, Day 6, AM, OS) of the same compound?
The value was 25.3 and 24.5.

What about the “Intraocular pressure (IOP)” value (intraocular pressure; Group 3, 1.2 mg/eye topical BID, Day 7, AM, OD) of the same compound?
Its value is 22.7.

And the “Intraocular pressure (IOP)” value (intraocular pressure; Group 3, 1.2 mg/eye topical BID, Day 7, AM, OS)?
Its value is 22.0.

What about the “Intraocular pressure (IOP)” value (intraocular pressure; Group 3, 1.2 mg/eye topical BID, Day 7, PM, OD) of the same compound?
Its value is 23.5 and 24.3 and 22.0.

What about the “Intraocular pressure (IOP)” value (intraocular pressure; Group 3, 1.2 mg/eye topical BID, Day 8, AM, OD) of the same compound?
The value was 25.2 and 24.5.

What about the “Intraocular pressure (IOP)” value (intraocular pressure; Group 3, 1.2 mg/eye topical BID, Day 8, AM, OS) of the same compound?
Its value is 23.7 and 23.0 and 24.3.

And the “Intraocular pressure (IOP)” value (intraocular pressure; Group 4, 1.2 mg/eye topical QD, Day 3, AM, OD)?
Its value is 19.0.

What about the “Intraocular pressure (IOP)” value (intraocular pressure; Group 4, 1.2 mg/eye topical QD, Day 3, AM, OS) of the same compound?
Its value is 20.3.

What about the “Intraocular pressure (IOP)” value (intraocular pressure; Group 4, 1.2 mg/eye topical QD, Day 6, AM, OD) of the same compound?
Its value is 23.2.

What about the “Intraocular pressure (IOP)” value (intraocular pressure; Group 4, 1.2 mg/eye topical QD, Day 6, AM, OS) of the same compound?
The value was 24.5 and 23.5.

And the “Intraocular pressure (IOP)” value (intraocular pressure; Group 4, 1.2 mg/eye topical QD, Day 7, AM, OD)?
Its value is 23.0.

And the “Intraocular pressure (IOP)” value (intraocular pressure; Group 4, 1.2 mg/eye topical QD, Day 7, AM, OS)?
Its value is 23.7 and 20.0 and 25.2.

What about the “Intraocular pressure (IOP)” value (intraocular pressure; Group 4, 1.2 mg/eye topical QD, Day 7, PM, OD) of the same compound?
Its value is 24.5 and 26.0 and 22.7 and 25.0.

And the “Intraocular pressure (IOP)” value (intraocular pressure; Group 4, 1.2 mg/eye topical QD, Day 7, PM, OS)?
The value was 24.3 and 26.0 (2×).

And the “Intraocular pressure (IOP)” value (intraocular pressure; Group 4, 1.2 mg/eye topical QD, Day 8, AM, OD)?
Its value is 22.8.

And the “Intraocular pressure (IOP)” value (intraocular pressure; Group 4, 1.2 mg/eye topical QD, Day 8, AM, OS)?
Its value is 24.2.

What about the “Intraocular pressure (IOP)” value (intraocular pressure; Group 5, 10 mg/kg subcutaneous BID, Day 1, AM, OD) of the same compound?
The value was 22.2 and 21.5 and 22.7.

And the “Intraocular pressure (IOP)” value (intraocular pressure; Group 5, 10 mg/kg subcutaneous BID, Day 1, AM, OS)?
The value was 24.7.

And the “Intraocular pressure (IOP)” value (intraocular pressure; Group 5, 10 mg/kg subcutaneous BID, Day 1, PM, OD)?
The value was 24.3 and 26.2 and 24.0.

What about the “Intraocular pressure (IOP)” value (intraocular pressure; Group 5, 10 mg/kg subcutaneous BID, Day 1, PM, OS) of the same compound?
Its value is 22.8 and 21.0.

What about the “Intraocular pressure (IOP)” value (intraocular pressure; Group 5, 10 mg/kg subcutaneous BID, Day 2, AM, OD) of the same compound?
The value was 20.2 and 21.5 and 25.3 and 22.7.

What about the “Intraocular pressure (IOP)” value (intraocular pressure; Group 5, 10 mg/kg subcutaneous BID, Day 2, AM, OS) of the same compound?
The value was 21.2 and 21.7 and 24.0 and 22.8.

What about the “Intraocular pressure (IOP)” value (intraocular pressure; Group 5, 10 mg/kg subcutaneous BID, Day 3, AM, OD) of the same compound?
The value was 20.2 and 23.3.

What about the “Intraocular pressure (IOP)” value (intraocular pressure; Group 5, 10 mg/kg subcutaneous BID, Day 3, AM, OS) of the same compound?
The value was 17.5 and 21.5 (2×) and 22.2 and 23.7.

What about the “Intraocular pressure (IOP)” value (intraocular pressure; Group 5, 10 mg/kg subcutaneous BID, Day 4, AM, OD) of the same compound?
The value was 20.0 and 21.2 (2×) and 24.7 and 22.5.

And the “Intraocular pressure (IOP)” value (intraocular pressure; Group 5, 10 mg/kg subcutaneous BID, Day 4, AM, OS)?
The value was 22.2 and 24.7 and 23.3.

What about the “Intraocular pressure (IOP)” value (intraocular pressure; Group 5, 10 mg/kg subcutaneous BID, Day 5, AM, OD) of the same compound?
The value was 14.0 and 23.7 and 26.7.

What about the “Intraocular pressure (IOP)” value (intraocular pressure; Group 5, 10 mg/kg subcutaneous BID, Day 5, AM, OS) of the same compound?
Its value is 21.0 and 23.2 and 26.2.

What about the “Intraocular pressure (IOP)” value (intraocular pressure; Group 5, 10 mg/kg subcutaneous BID, Day 6, AM, OD) of the same compound?
Its value is 24.8 and 23.8 and 25.5.

What about the “Intraocular pressure (IOP)” value (intraocular pressure; Group 5, 10 mg/kg subcutaneous BID, Day 6, AM, OS) of the same compound?
Its value is 24.0 and 25.7.

And the “Intraocular pressure (IOP)” value (intraocular pressure; Group 5, 10 mg/kg subcutaneous BID, Day 7, AM, OD)?
The value was 25.2.

What about the “Intraocular pressure (IOP)” value (intraocular pressure; Group 5, 10 mg/kg subcutaneous BID, Day 7, AM, OS) of the same compound?
Its value is 24.0.

What about the “Intraocular pressure (IOP)” value (intraocular pressure; Group 5, 10 mg/kg subcutaneous BID, Day 7, PM, OD) of the same compound?
The value was 24.5 and 25.5 (2×) and 22.3.

What about the “Intraocular pressure (IOP)” value (intraocular pressure; Group 5, 10 mg/kg subcutaneous BID, Day 7, PM, OS) of the same compound?
The value was 24.3.

And the “Intraocular pressure (IOP)” value (intraocular pressure; Group 5, 10 mg/kg subcutaneous BID, Day 8, AM, OD)?
The value was 24.0 and 26.0.

What about the “Intraocular pressure (IOP)” value (intraocular pressure; Group 5, 10 mg/kg subcutaneous BID, Day 8, AM, OS) of the same compound?
The value was 22.0 and 24.8 and 25.5.
